The values below come from article PMC7355856.

The chains behind the UniProt entries cited, without tags or fusion partners. Residues count along the entry.
UniProt P48147: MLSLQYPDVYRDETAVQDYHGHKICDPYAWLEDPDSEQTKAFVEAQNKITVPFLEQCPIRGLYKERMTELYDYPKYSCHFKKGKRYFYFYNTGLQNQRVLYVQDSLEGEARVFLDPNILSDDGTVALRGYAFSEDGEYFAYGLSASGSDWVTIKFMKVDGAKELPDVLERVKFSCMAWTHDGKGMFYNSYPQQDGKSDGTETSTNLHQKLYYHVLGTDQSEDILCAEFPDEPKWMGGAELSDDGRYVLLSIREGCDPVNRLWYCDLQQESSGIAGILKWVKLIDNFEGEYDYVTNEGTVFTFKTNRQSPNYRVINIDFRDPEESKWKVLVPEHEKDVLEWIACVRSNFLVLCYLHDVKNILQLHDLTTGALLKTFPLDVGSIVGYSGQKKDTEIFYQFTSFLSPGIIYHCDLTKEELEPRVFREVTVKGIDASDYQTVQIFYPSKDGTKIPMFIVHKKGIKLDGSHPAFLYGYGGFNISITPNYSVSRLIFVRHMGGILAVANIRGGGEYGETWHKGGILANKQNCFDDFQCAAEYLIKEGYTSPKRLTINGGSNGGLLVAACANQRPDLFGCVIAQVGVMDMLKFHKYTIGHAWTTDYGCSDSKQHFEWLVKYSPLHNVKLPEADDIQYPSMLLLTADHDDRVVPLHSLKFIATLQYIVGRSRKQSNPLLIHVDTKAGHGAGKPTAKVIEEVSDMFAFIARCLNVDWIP
UniProt P02769, residues 25-607: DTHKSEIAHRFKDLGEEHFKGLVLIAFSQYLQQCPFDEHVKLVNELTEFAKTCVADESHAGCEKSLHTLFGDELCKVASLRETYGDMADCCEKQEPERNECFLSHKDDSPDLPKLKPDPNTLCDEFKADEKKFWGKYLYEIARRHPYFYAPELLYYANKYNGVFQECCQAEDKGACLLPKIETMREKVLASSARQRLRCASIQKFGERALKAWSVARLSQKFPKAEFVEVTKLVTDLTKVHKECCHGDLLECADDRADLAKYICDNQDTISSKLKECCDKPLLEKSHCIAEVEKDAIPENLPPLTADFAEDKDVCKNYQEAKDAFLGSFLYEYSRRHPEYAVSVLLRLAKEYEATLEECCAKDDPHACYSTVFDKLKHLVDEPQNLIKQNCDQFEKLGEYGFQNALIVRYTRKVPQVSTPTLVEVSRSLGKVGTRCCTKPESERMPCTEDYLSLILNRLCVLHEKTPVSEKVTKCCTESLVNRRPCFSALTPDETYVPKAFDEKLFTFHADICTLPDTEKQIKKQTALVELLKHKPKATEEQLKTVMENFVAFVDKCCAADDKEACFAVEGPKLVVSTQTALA

The target of assay [1] is prolyl endopeptidase-like (PREPL) protein (human) (UniProt Q4J6C6). The assay can be described thus: SPR; Biacore T200, PREPL or POP amine-coupled on CM5 (1134.6 RU PREPL, 1514.1 RU POP); α-Syn analyte 0.1-250 μM (BSA as specificity control), HBS + EP pH 7.4, 25 °C, 15 μL/min; apparent Kd from response vs. concentration (one-site equation, α-Syn below 50 μM) and Kd from ka and kd of the Biacore evaluation software; both purified.

For assay [2], the target named is prolyl oligopeptidase (POP) (human) (UniProt P48147). Described as above.

No constants are given. Whether binding was seen depends on the method and setting.

Turning to “bovine serum albumin (from UniProt P02769 25-607)”, the binding entry in assay [1] and in assay [2] was “no binding” throughout.
